The results in this text go back to PMC5877880.

The chains behind the UniProt entries cited, without tags or fusion partners. Where a name states a change or a piece, a line headed by the entry shows the natural chain unless it says otherwise.
UniProt P63158: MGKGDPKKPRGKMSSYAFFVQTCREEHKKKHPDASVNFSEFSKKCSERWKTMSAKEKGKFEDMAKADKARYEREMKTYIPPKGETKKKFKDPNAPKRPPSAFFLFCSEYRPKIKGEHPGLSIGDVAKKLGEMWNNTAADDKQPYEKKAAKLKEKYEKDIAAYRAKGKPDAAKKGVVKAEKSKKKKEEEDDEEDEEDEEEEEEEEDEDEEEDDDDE
UniProt P09429: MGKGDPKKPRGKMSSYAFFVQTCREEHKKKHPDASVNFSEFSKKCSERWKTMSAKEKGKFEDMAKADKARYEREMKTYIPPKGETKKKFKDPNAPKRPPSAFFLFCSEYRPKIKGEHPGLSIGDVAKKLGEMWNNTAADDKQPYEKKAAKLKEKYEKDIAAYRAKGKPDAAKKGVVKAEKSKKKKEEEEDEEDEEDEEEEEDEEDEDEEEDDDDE
UniProt P10749: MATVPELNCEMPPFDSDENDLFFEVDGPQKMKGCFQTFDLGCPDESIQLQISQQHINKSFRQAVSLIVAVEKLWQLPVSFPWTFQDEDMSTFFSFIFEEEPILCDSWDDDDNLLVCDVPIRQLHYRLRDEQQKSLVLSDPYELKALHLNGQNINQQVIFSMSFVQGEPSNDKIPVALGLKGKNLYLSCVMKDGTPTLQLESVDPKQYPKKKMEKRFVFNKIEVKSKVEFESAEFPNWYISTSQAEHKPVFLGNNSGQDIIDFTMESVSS
UniProt P01584: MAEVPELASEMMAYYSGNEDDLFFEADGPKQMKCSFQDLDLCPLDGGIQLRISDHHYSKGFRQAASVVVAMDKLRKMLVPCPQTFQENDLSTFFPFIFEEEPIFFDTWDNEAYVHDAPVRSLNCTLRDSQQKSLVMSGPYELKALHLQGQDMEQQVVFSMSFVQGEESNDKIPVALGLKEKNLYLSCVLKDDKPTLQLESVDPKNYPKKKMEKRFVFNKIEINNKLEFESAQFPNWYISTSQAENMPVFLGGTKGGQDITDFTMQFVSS

Results are given in words; binding and its absence hold for the method and conditions named. In cells and extracts the contact can be indirect. Binding calls can cover weak binding; strength is not graded here.

The target of assay [1] is High-Motility Group Box-1 (HMGB1), mouse plasma (mouse (endogenous in mouse plasma)) (UniProt P63158). Description: co-IP; Catch and Release kit (Millipore) spin column; 500 μg of plasma sample with anti-HMGB1 antibody and antibody capture affinity ligand for 30 minutes; washes, elution; flow through and eluate blotted for HMGB1 and IL-1β; mouse or human plasma, control and burn.

Assay [2] has as its target High-Motility Group Box-1 (HMGB1), human plasma (human (endogenous in human plasma)) (UniProt P09429). Described as above.

As to “pro-IL-1β (31kD pro-form of IL-1β), mouse plasma (from UniProt P10749)”, the binding result in assay [1] is reported as “binds”.
Regarding “pro-IL-1β (31kD pro-form of IL-1β), human plasma (from UniProt P01584)”, in assay [2], the binding result is “binds”.
